# Test results taken from PMC6704128.
# The chains behind the UniProt entries cited, without tags or fusion partners. Residues count along the entry.
# UniProt P08514, residues 987-1039: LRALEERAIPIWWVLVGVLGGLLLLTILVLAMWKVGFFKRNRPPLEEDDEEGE
# These are yes or no findings as the source states them, for the method shown. For part of these data: Binding seen in cells or lysates may run through a third protein. Some entries that bind do so weakly or less than the wild type. Tags and fused reporters may be left off the sequences shown.
# T1: full-length Canis familiaris ICln (cICln), N-terminal His6-tagged (Canis familiaris) (UniProt P35521)
# T1 sequence: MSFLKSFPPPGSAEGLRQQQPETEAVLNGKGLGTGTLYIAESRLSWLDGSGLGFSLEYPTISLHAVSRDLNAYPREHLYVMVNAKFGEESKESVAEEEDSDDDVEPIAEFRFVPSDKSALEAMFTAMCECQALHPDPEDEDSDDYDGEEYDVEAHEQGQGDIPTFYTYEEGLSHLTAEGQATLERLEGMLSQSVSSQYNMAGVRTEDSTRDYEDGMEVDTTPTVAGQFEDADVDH
# B1: CFP-ICln (Canis familiaris ICln, wild type, CFP fused to the N-terminus) (protein, UniProt P35521 1-235)
# chain: T1 sequence
# Legend:
# [1] = molecular target: αIIbs-YFP (transmembrane and intracellular portion, amino acids 987-1039, of the human integrin αIIb chain, YFP at the C-terminus) (human) (UniProt P08514); assay: FRET or BRET; sensitized emission N-FRET; living NIH-3T3 fibroblasts in isotonic solution and after 10, 15 and 20 min of hypotonic solution; three plasma membrane ROIs of each cell
# [2] = molecular target: αIIbs-YFP (transmembrane and intracellular portion, amino acids 987-1039, of the human integrin αIIb chain, YFP at the C-terminus) (human) (UniProt P08514); assay: FRET or BRET; acceptor photobleaching; NIH-3T3 fibroblasts fixed in 3% paraformaldehyde, in phosphate buffered saline; data not shown
# [3] = molecular target: T1, full-length Canis familiaris ICln (cICln), N-terminal His6-tagged (Canis familiaris); assay: NMR titration; 1H-15N HSQC of 15N-labelled ICln (0.8 mM) without and with the integrin peptide (equimolar amount for TcICln); 50 mM K2HPO4, pH 6.6, 90% H2O/10% D2O, 25 °C, 800 MHz; both purified
Binder,binding [1],binding [2],binding [3]
B1,binds,binds,
"MWKVGFFKRNRPPLEEDDEEGE [integrin peptide (1018)…(1039), the entire C-terminus of integrin αIIb]",,,binds weakly
